# Assay results published in PubChem BioAssay AID445 (National Center for Advancing Translational Sciences (NCATS), 2006).
# This is one part of the list. Further columns of the screen follow, without active or inactive calls. Most of these compounds were active or inconclusive in the main read-out, so they are no random draw. Words in brackets tell the shape of the fitted curve; partial curves, single points and poor fits give uncertain potencies.
# Assay: IkB Signaling
# Settings: ABC-DLBCL IkBa-CBG/CBR dual luciferase ratio (green luciferase fused to IkBa over red control in OCI-Ly3 lymphoma cells), 4 h
# Summary of the method: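 Luminescence ratio of IκBα-fused green versus native red beetle luciferase in OCI-Ly3 cells, 4 h post-doxycycline with compound; red signal alone, scaled from basal (0%) to zero light (-100%), flagged nonspecific or cytotoxic effects.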
# [1] = measured here: control luc red channel unless noted
smiles,measurement,setting,value
C1=C(c2ccccc2)CCN(c2nc3ccccc3n3cnnc23)C1,AC50,[1],"15.8 µM [falling, partial curve]"
Cn1cc(-c2cc3n(n2)CCC(=O)N3CCCC(=O)Nc2ccc(Cl)cc2)c2ccccc21,AC50,[1],"3.16 µM [falling, partial curve, poor fit]"
O=C1CC(c2ccccc2)Sc2ccccc2N1Cc1ccccc1F (configuration not stated),AC50,[1],"12.6 µM [falling, partial curve]"
Cc1c(Nc2ncnc3nc[nH]c23)c(=O)n(-c2ccccc2)n1C,AC50,[1],"10 µM [falling, partial curve]"
COc1ccc(NC(=O)Cn2ccn(-c3ccc(F)c(F)c3)c(=O)c2=O)cc1Cl,AC50,[1],"7.94 µM [falling, full curve, poor fit]"
COc1ccc(CNC(=O)CCC2N=C3c4ccccc4N=C(SCC(=O)NCCc4ccc(OC)c(OC)c4)N3C2=O)cc1 (configuration not stated),AC50,[1],"7.94 µM [rising, single point]"
O=c1oc2ccccc2c(N2CCCCC2)c1CN1CCCCC1,AC50,[1],"5.01 µM [falling, partial curve]"
CC(=O)N1CCCc2cc(S(=O)(=O)N(C)CC(=O)Nc3cccc(Cl)c3C)ccc21,AC50,[1],"25.1 µM [falling, single point]"
Cc1cc(N2CCOCC2)n2nc(C)c(-c3ccccc3)c2n1,AC50,[1],"2 µM [rising, full curve, poor fit]"
Cn1c(=O)c2cc(S(=O)(=O)NC(Cc3ccccc3)C(=O)Nc3ccc(F)cc3)ccc2n(C)c1=O (configuration not stated),AC50,[1],"25.1 µM [falling, partial curve]"
Cc1ccccc1Cn1c2ccccc2c2cnn(CC(=O)NCc3cccc(Cl)c3)c(=O)c21,AC50,[1],"0.794 µM [falling, full curve]"
COCCN(CCOC)c1ncc(Cl)c(C(=O)c2c(C)cc3ccccn23)n1,AC50,[1],"25.1 µM [falling, single point]"
O=C1CCNc2cc3ccccc3cc21,AC50,[1],"15.8 µM [falling, partial curve]"
Cc1nc(-n2nc(C)c(Cc3ccc(Cl)cc3)c2C)sc1C(=O)N1CCC(C)CC1,AC50,[1],"12.6 µM [falling, partial curve]"
CC(N=Cc1cccc(O)c1O)c1ccccc1 (configuration not stated),AC50,[1],"6.31 µM [rising, single point] [measured here: IkB-luc green channel]"
CN(C)C(=O)CSc1cccc2cccnc12,AC50,[1],"7.94 µM [rising, full curve] [measured here: IkB-luc green channel]"
CCOc1ccc2nc(N(Cc3cccnc3)C(=O)c3cccs3)sc2c1,AC50,[1],"12.6 µM [falling, partial curve]"
COc1cccc(C(=O)Nc2nc(-c3nnn(-c4ccccc4C(F)(F)F)c3C)ns2)c1,AC50,[1],"15.8 µM [falling, partial curve]"
Cc1c(Cl)ccc2sc(N3CCN(C(=O)CCS(=O)(=O)c4ccc(F)cc4)CC3)nc12,AC50,[1],"31.6 µM [falling, single point]"
COc1ccc(-c2nc3ccccc3n2Cc2ccccc2)cc1,AC50,[1],"31.6 µM [falling, partial curve]"
CC1=C(C(=O)Nc2ccccc2)C(c2ccccn2)n2nc(SCc3ccccc3)nc2N1 (configuration not stated),AC50,[1],"0.631 µM [falling, single point]"
Cc1ccc2c(c1)C(c1ccccc1)N(C(=O)COc1ccc(Cl)cc1Cl)CC(=O)N2 (configuration not stated),AC50,[1],"10 µM [falling, partial curve]"
COc1ccc(C)c2sc(NC(=O)c3ccc(S(=O)(=O)N4CCOCC4)cc3)nc12,AC50,[1],"10 µM [falling, partial curve, poor fit]"
COc1ccc(C(=O)Oc2c(Sc3ccccc3)c(C)nn2-c2ccccc2)c(OC)c1,AC50,[1],"7.94 µM [falling, partial curve]"
COc1cccc(N2CCN(C(=O)c3cnc4c(-c5ccc(F)cc5)c(C)nn4c3C)CC2)c1,AC50,[1],"31.6 µM [falling, single point]"
COc1ccc(C2Nc3ccccc3-c3cc(C)nn32)c(OC)c1 (configuration not stated),AC50,[1],"0.00631 µM [falling, full curve, poor fit]"
CCOc1ccc(NC(=O)c2cc(-c3ccc(C)c(F)c3)on2)c([N+](=O)[O-])c1,AC50,[1],"1.26 µM [rising, full curve]"
Cc1cccc(C)c1OCCn1c(CCNC(=O)C2CCCCC2)nc2ccccc21,AC50,[1],"25.1 µM [falling, partial curve]"
Cc1ccc(NCc2nnc(SCCN3CCCCC3)n2CC2CCCO2)c(C)c1 (configuration not stated),AC50,[1],"10 µM [falling, partial curve]"
CCN(CC)S(=O)(=O)c1ccc2c(c1)N(CC(=O)Nc1ccc(Cl)cc1)C(=O)C1CCCN21 (configuration not stated),AC50,[1],"15.8 µM [falling, partial curve]"
CC(C)(C)c1ccc(C(=O)NCC(c2ccco2)S(=O)(=O)c2ccccc2)cc1 (configuration not stated),AC50,[1],"39.8 µM [falling, single point]"
CCOC(=O)Cn1c(=O)c2c(nc(N3CCCCC3)n2Cc2ccccc2)n(C)c1=O,AC50,[1],"6.31 µM [falling, partial curve]"
Cc1ccc(C)c(NC(=O)c2cc(S(=O)(=O)N3CCc4ccccc4C3)ccc2F)c1,AC50,[1],"0.316 µM [falling, full curve]"
CCOc1ccc(N2C(=O)c3cccnc3C2Nc2ccc(Cl)cc2)cc1 (configuration not stated),AC50,[1],"12.6 µM [falling, partial curve]"
Fc1ccc(CNc2nc(-c3ccco3)cc(C(F)(F)F)n2)cc1,AC50,[1],"20 µM [falling, partial curve]"
O=C(CN1CCN(c2nc(-c3ccccc3)cs2)CC1)Nc1ccc2c(c1)OCO2,AC50,[1],"25.1 µM [falling, partial curve]"
COc1ccc(-c2noc(-c3ccccc3OCC(=O)Nc3ccc(C(C)=O)cc3)n2)cc1,AC50,[1],"31.6 µM [falling, single point]"
CC(C)Cn1c(SCC(=O)N2CCN(S(=O)(=O)c3ccccc3)CC2)nc2ccccc21,AC50,[1],"6.31 µM [falling, partial curve]"
COc1ccccc1NC(=O)Cn1c(=O)n(-c2ccccc2Cl)c(=O)c2sc3ccccc3c21,AC50,[1],"3.98 µM [falling, partial curve]"
O=C(CN1CCN(c2ccc(Cl)cc2)CC1)Nc1ccc(F)cc1,AC50,[1],"12.6 µM [falling, partial curve]"
CCCCC(=O)Nc1nnc(S(=O)(=O)N2CCCCCC2)s1,AC50,[1],"2.51 µM [falling, partial curve]"
CC(C)CCn1c(=O)c2ccccc2n2c(CN(C)Cc3ccccc3)nnc12,AC50,[1],"25.1 µM [falling, partial curve]"
CCN(c1cccc(C)c1)C(CNS(=O)(=O)c1ccccc1)c1ccccc1 (configuration not stated),AC50,[1],"15.8 µM [falling, partial curve]"
CCOc1ccc(NC(=O)c2cccc(N3CCCS3(=O)=O)c2)cc1,AC50,[1],"12.6 µM [falling, partial curve]"
Cc1ccc(C)c(N2CCN(C(=O)CN3C(=O)COc4ccc(S(=O)(=O)N5CCOCC5)cc43)CC2)c1,AC50,[1],"39.8 µM [rising, single point]"
Cc1ccc(C)c(CNC(=O)C2CCCCN2S(=O)(=O)c2ccc(F)cc2)c1 (configuration not stated),AC50,[1],"31.6 µM [falling, single point]"
Cc1cccc(-c2cc(NC(=O)c3ccccc3C)n(-c3ccccc3)n2)c1,AC50,[1],"25.1 µM [falling, single point]"
O=C(Nc1ccc(F)c(Cl)c1)C1CCCN(c2ncnc3onc(-c4ccc(F)cc4)c23)C1 (configuration not stated),AC50,[1],"12.6 µM [falling, partial curve]"
CCSc1ccccc1C(=O)n1nnc2ccccc21,AC50,[1],"6.31 µM [falling, partial curve]"
Cc1cccc(N2CCN(c3ncnc4onc(-c5ccc(F)cc5)c34)CC2C)c1 (configuration not stated),AC50,[1],"20 µM [falling, single point]"
O=C(Nc1ccc(S(=O)(=O)C(F)F)cc1)c1cccc(S(=O)(=O)N2CCOCC2)c1,AC50,[1],"15.8 µM [falling, partial curve]"
Cc1ccc(NC(=O)CCc2nc3cccnc3n2-c2ccccc2)cc1,AC50,[1],"20 µM [falling, single point]"
CC(C)(C)C(=O)Nc1ccc(Cl)c(-c2nc3ccccc3[nH]2)c1,AC50,[1],"31.6 µM [falling, single point]"
O=C(Cn1c(=O)n(Cc2ccc(C(=O)NCc3ccccc3Cl)cc2)c(=O)c2ccccc21)Nc1ccc(F)cc1,AC50,[1],"1 µM [falling, full curve]"
CCN(CC)S(=O)(=O)c1ccc2c(c1)N(CC(=O)Nc1ccc(F)cc1F)C(=O)C1CCCN21 (configuration not stated),AC50,[1],"12.6 µM [falling, partial curve]"
Cc1ccc(CNc2ccc(-c3nc(-c4cccnc4)no3)cc2[N+](=O)[O-])cc1,AC50,[1],"2.51 µM [falling, full curve]"
CCn1cc(C(=O)NCCc2ccc(Cl)cc2)c(=O)c2cc(S(=O)(=O)N3CCOCC3)ccc21,AC50,[1],"3.98 µM [rising, partial curve]"
COc1ccc(OCC(=O)N2CCN(c3cccc(C(F)(F)F)c3)CC2)cc1,AC50,[1],"31.6 µM [falling, single point]"
Oc1cccc(-c2nc3ncccn3c2Nc2cccc(C(F)(F)F)c2)c1,AC50,[1],"12.6 µM [falling, partial curve]"
CCOc1ccccc1NC(=O)c1ccc2oc(=O)c(S(=O)(=O)c3ccc(F)cc3)cc2c1,AC50,measured here: IkB-luc green channel,"5.01 µM [rising, single point]"
same,AC50,measured here: control luc red channel,"10 µM [falling, partial curve]"
Cc1nn(-c2ccccc2)c(C)c1C(=O)OC/C(O)=C(\C#N)c1nc2ccccc2[nH]1,AC50,[1],"15.8 µM [falling, partial curve]"

# In a second layout: results already given.
smiles | measurement | setting | value
COc1ccc(-c2nc3ccccc3n2Cc2ccccc2)cc1 | AC50 | [1] | 31.6 µM [falling, partial curve]
CC1=C(C(=O)Nc2ccccc2)C(c2ccccn2)n2nc(SCc3ccccc3)nc2N1 (configuration not stated) | AC50 | [1] | 0.631 µM [falling, single point]
Cc1ccc2c(c1)C(c1ccccc1)N(C(=O)COc1ccc(Cl)cc1Cl)CC(=O)N2 (configuration not stated) | AC50 | [1] | 10 µM [falling, partial curve]
COc1ccc(C)c2sc(NC(=O)c3ccc(S(=O)(=O)N4CCOCC4)cc3)nc12 | AC50 | [1] | 10 µM [falling, partial curve, poor fit]
COc1ccc(C(=O)Oc2c(Sc3ccccc3)c(C)nn2-c2ccccc2)c(OC)c1 | AC50 | [1] | 7.94 µM [falling, partial curve]
COc1cccc(N2CCN(C(=O)c3cnc4c(-c5ccc(F)cc5)c(C)nn4c3C)CC2)c1 | AC50 | [1] | 31.6 µM [falling, single point]
COc1ccc(C2Nc3ccccc3-c3cc(C)nn32)c(OC)c1 (configuration not stated) | AC50 | [1] | 0.00631 µM [falling, full curve, poor fit]
CCOc1ccc(NC(=O)c2cc(-c3ccc(C)c(F)c3)on2)c([N+](=O)[O-])c1 | AC50 | [1] | 1.26 µM [rising, full curve]
Cc1cccc(C)c1OCCn1c(CCNC(=O)C2CCCCC2)nc2ccccc21 | AC50 | [1] | 25.1 µM [falling, partial curve]
Cc1ccc(NCc2nnc(SCCN3CCCCC3)n2CC2CCCO2)c(C)c1 (configuration not stated) | AC50 | [1] | 10 µM [falling, partial curve]
CCN(CC)S(=O)(=O)c1ccc2c(c1)N(CC(=O)Nc1ccc(Cl)cc1)C(=O)C1CCCN21 (configuration not stated) | AC50 | [1] | 15.8 µM [falling, partial curve]
CC(C)(C)c1ccc(C(=O)NCC(c2ccco2)S(=O)(=O)c2ccccc2)cc1 (configuration not stated) | AC50 | [1] | 39.8 µM [falling, single point]
CCOC(=O)Cn1c(=O)c2c(nc(N3CCCCC3)n2Cc2ccccc2)n(C)c1=O | AC50 | [1] | 6.31 µM [falling, partial curve]
Cc1ccc(C)c(NC(=O)c2cc(S(=O)(=O)N3CCc4ccccc4C3)ccc2F)c1 | AC50 | [1] | 0.316 µM [falling, full curve]
CCOc1ccc(N2C(=O)c3cccnc3C2Nc2ccc(Cl)cc2)cc1 (configuration not stated) | AC50 | [1] | 12.6 µM [falling, partial curve]
Fc1ccc(CNc2nc(-c3ccco3)cc(C(F)(F)F)n2)cc1 | AC50 | [1] | 20 µM [falling, partial curve]
O=C(CN1CCN(c2nc(-c3ccccc3)cs2)CC1)Nc1ccc2c(c1)OCO2 | AC50 | [1] | 25.1 µM [falling, partial curve]
